Laboratory results from US11613686B2, “Associative copolymers with hydrophobic quaternized (meth)acrylamide and (meth)acrylic acid derivatives” (BASF SE, priority 2018, dated 2023).
At least one read-out could not be matched to a standard name with certainty.

Test: Solubility tests of monomer 1 in the monomer solution with auxiliary surfactants (additives)
Type: physicochemical
Settings: monomer first dissolved in ethanol, then added to the monomer solution; no additive
Method: In order to solubilize monomer 1 the monomer was first dissolved in ethanol and then added to the monomer solution. This approach is used for AIBN, which has a low solubility in the monomer solution, too. […] Therefore, the use of auxiliary surfactants (additives) was tested.
These tests were done in first instance with 0.1 mol % of 1-4.

For `C=C(C)C(=O)NCCC[N+](C)(C)CCCCCCCCCCCC` [Monomer 1], the “Solubilization in the monomer solution” value was “a fine precipitate was formed”.
